{
  "source": "PubChem BioAssay AID2685",
  "about": "(National Center for Advancing Translational Sciences (NCATS), 2010)",
  "experiment": "qHTS Assay for Lipid Storage Modulators in Drosophila S3 Cells;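 as to cell number change: cells counted by Cell Tracker Red CMTPX staining in the red channel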",
  "conditions": "BODIPY lipid droplet fluorescence, 18-24 h; for cell number change: measured here: cell count max response, cells fed with added oleic acid",
  "procedure,_shortened": "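Drosophila S3 cells got compounds at several concentrations plus oleic acid (400 uM solution). Laser-scanning cytometry with 488 nm excitation read lipid droplets at 500-530 nm and cells at 575-640 nm. Percent activity was relative to 20 uM Triacsin C.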",
  "key": {"[1]": {"conditions": "measured here: lipid fluorescence (Fed channel) AC50, cells fed with added oleic acid"}, "[2]": {"conditions": "measured here: cell number channel AC50, cells fed with added oleic acid"}},
  "note": "The list shows a part of the results. Further columns of the screen follow, without active or inactive calls. Compounds called inactive in the main read-out are mostly missing here. Potencies come from curve fits of mixed quality, noted in brackets.",
  "data": [
    {"compound": "C#CCn1c(=NC(=O)CN2C(=O)CCC2=O)sc2cccc(C)c21", "values": [
      {"measurement": "cell number change", "value": 4.79, "unit": "%"},
      {"measurement": "AC50", "setting": "[1]", "value": "0.259 µM [falling, full curve, poor fit]"}
    ]},
    {"compound": "NS(=O)(=O)c1ccc(NC(=O)CSc2nnc(COc3ccccc3Cl)n2C2CC2)cc1", "values": [
      {"measurement": "cell number change", "value": -49.3, "unit": "%"},
      {"measurement": "AC50", "setting": "[2]", "value": "25.9 µM [falling, single point]"}
    ]},
    {"compound": "Cc1cc(/C=C2\\SC(=S)N(C)C2=O)c(C)n1-c1cccc(O)c1", "values": [
      {"measurement": "cell number change", "value": -2.45, "unit": "%"}
    ]},
    {"compound": "CCN(CC(=O)NCc1cccs1)c1ccc(S(=O)(=O)N2CCCC2)cn1", "values": [
      {"measurement": "cell number change", "value": 16.5, "unit": "%"},
      {"measurement": "AC50", "setting": "[2]", "value": "0.00517 µM [rising, full curve, poor fit]"},
      {"measurement": "AC50", "setting": "[1]", "value": "2.31 µM [falling, single point]"}
    ]},
    {"compound": "Cc1ccc(Nc2nc(N)nc(CC#N)n2)cc1", "values": [
      {"measurement": "AC50", "setting": "[2]", "value": "3.26 µM [rising, partial curve]"},
      {"measurement": "AC50", "setting": "[1]", "value": "2.06 µM [rising, partial curve]"}
    ]},
    {"compound": "CCOc1cc(-c2nc(-c3ccc(C)nc3OC)no2)cc(OCC)c1OCC", "values": [
      {"measurement": "cell number change", "value": -2.03, "unit": "%"},
      {"measurement": "AC50", "setting": "[1]", "value": "0.291 µM [rising, partial curve]"}
    ]},
    {"compound": "CN1CCN(CCNC(=O)c2ccc3nc(-c4ccc(F)cc4)c(-c4ccc(F)cc4)nc3c2)CC1", "values": [
      {"measurement": "cell number change", "value": -17, "unit": "%"},
      {"measurement": "AC50", "setting": "[1]", "value": "1.16 µM [rising, full curve]"}
    ]},
    {"compound": "Cc1ccc(C(=O)OCC(=O)Nc2sc3c(c2C#N)CCCC3)cc1NC(=O)c1ccco1", "values": [
      {"measurement": "cell number change", "value": 60, "unit": "%"},
      {"measurement": "AC50", "setting": "[2]", "value": "1.84 µM [rising, full curve]"}
    ]},
    {"compound": "NCC(=O)Nc1ccc(Cl)cc1C(=O)c1ccc[nH]1", "values": [
      {"measurement": "cell number change", "value": -21, "unit": "%"},
      {"measurement": "AC50", "setting": "[1]", "value": "29.1 µM [rising, partial curve]"}
    ]},
    {"compound": "COc1ccc([C@H]2CC(=O)C=C(c3ccc4ncccc4c3)C2)cc1", "values": [
      {"measurement": "cell number change", "value": -31.3, "unit": "%"},
      {"measurement": "AC50", "setting": "[2]", "value": "1.64 µM [falling, partial curve]"}
    ]},
    {"compound": "Cc1cccc(-c2nnc3n2N=C(c2ccccc2)CS3)c1", "values": [
      {"measurement": "cell number change", "value": 5.42, "unit": "%"}
    ]},
    {"compound": "Cc1ccc(-c2n[nH]c3c2C(c2ccccc2)N(c2ccc(C(=O)O)cc2)C3=O)cc1", "note": "(configuration not stated)", "values": [
      {"measurement": "cell number change", "value": -14.9, "unit": "%"}
    ]},
    {"compound": "CCOc1ccc2nc(N3CCC(C(=O)N4CCN(C5CCCCC5)CC4)CC3)sc2c1", "values": [
      {"measurement": "cell number change", "value": -16.1, "unit": "%"},
      {"measurement": "AC50", "setting": "[1]", "value": "9.2 µM [falling, partial curve, poor fit]"}
    ]},
    {"compound": "Cc1ccsc1/C=N/N=C1\\C(=O)Nc2ccccc21", "values": [
      {"measurement": "AC50", "setting": "[1]", "value": "3.26 µM [rising, partial curve]"}
    ]},
    {"compound": "O=C(NCc1ccccc1)c1cnc(-c2ccccn2)nc1C(F)(F)F", "values": [
      {"measurement": "cell number change", "value": 10.8, "unit": "%"}
    ]},
    {"compound": "Cc1ccc(-c2csc(NC(=O)CSc3nnc4c(n3)[nH]c3ccccc34)n2)cc1", "values": [
      {"measurement": "cell number change", "value": -41.4, "unit": "%"},
      {"measurement": "AC50", "setting": "[2]", "value": "29.1 µM [falling, single point]"},
      {"measurement": "AC50", "setting": "[1]", "value": "32.6 µM [falling, single point]"}
    ]},
    {"compound": "Cc1ccc(Nc2nc(-c3ccc(F)cc3)cs2)nc1", "values": [
      {"measurement": "cell number change", "value": 21.1, "unit": "%"},
      {"measurement": "AC50", "setting": "[1]", "value": "6.51 µM [falling, single point]"}
    ]},
    {"compound": "Cc1ccn2c(-c3csc(NCc4ccccc4)n3)c(C)nc2c1", "values": [
      {"measurement": "cell number change", "value": -25.6, "unit": "%"},
      {"measurement": "AC50", "setting": "[1]", "value": "20.6 µM [falling, partial curve]"}
    ]},
    {"compound": "CCC(=O)N(Cc1cccs1)C1CCOC(C)(C)C1", "note": "(configuration not stated)", "values": [
      {"measurement": "cell number change", "value": -28.1, "unit": "%"},
      {"measurement": "AC50", "setting": "[2]", "value": "1.16 µM [falling, full curve, poor fit]"},
      {"measurement": "AC50", "setting": "[1]", "value": "20.6 µM [falling, single point]"}
    ]},
    {"compound": "Cc1cccc(OCC(=O)N/N=C/c2cccn2C)c1", "values": [
      {"measurement": "cell number change", "value": 18.1, "unit": "%"},
      {"measurement": "AC50", "setting": "[1]", "value": "2.59 µM [rising, full curve]"}
    ]},
    {"compound": "CCOc1ccccc1CNC(=O)c1cc2oc3ccccc3c2n1CC", "values": [
      {"measurement": "AC50", "setting": "[2]", "value": "6.51 µM [rising, single point]"}
    ]},
    {"compound": "Cc1nnsc1C(=O)NCc1c(F)cccc1Cl", "values": [
      {"measurement": "cell number change", "value": 0.539, "unit": "%"},
      {"measurement": "AC50", "setting": "[1]", "value": "0.58 µM [falling, single point]"}
    ]},
    {"compound": "O=c1[nH]cnc2c1C1(CCCC1)Cc1ccccc1-2", "values": [
      {"measurement": "cell number change", "value": -81.9, "unit": "%"},
      {"measurement": "AC50", "setting": "[1]", "value": "29.1 µM [falling, single point]"}
    ]},
    {"compound": "CCCCOC(=O)C1CCCC(C)N1", "note": "(configuration not stated)", "values": [
      {"measurement": "cell number change", "value": 13, "unit": "%"},
      {"measurement": "AC50", "setting": "[1]", "value": "3.66 µM [falling, partial curve]"}
    ]},
    {"compound": "O=C(Cn1cnc2sc3c(c2c1=O)CCCC3)NCC(=O)Nc1c(F)cc(F)cc1Br", "values": [
      {"measurement": "cell number change", "value": 22.7, "unit": "%"},
      {"measurement": "AC50", "setting": "[2]", "value": "0.92 µM [rising, partial curve, poor fit]"},
      {"measurement": "AC50", "setting": "[1]", "value": "29.1 µM [rising, single point]"}
    ]},
    {"compound": "COCCSc1nnc(NC(=O)CS(=O)(=O)c2ccc(C)cc2)s1", "values": [
      {"measurement": "cell number change", "value": -8.57, "unit": "%"},
      {"measurement": "AC50", "setting": "[1]", "value": "6.51 µM [falling, single point]"}
    ]},
    {"compound": "O=c1oc2ccc(NS(=O)(=O)c3cccc4cccnc34)cc2s1", "values": [
      {"measurement": "cell number change", "value": -0.87, "unit": "%"},
      {"measurement": "AC50", "setting": "[1]", "value": "2.91 µM [rising, single point]"}
    ]},
    {"compound": "CC(=O)c1c(C)[nH]c(C(=O)CSc2nc3ccccc3n2C)c1C", "values": [
      {"measurement": "cell number change", "value": -21.5, "unit": "%"},
      {"measurement": "AC50", "setting": "[1]", "value": "6.51 µM [falling, single point]"}
    ]},
    {"compound": "N#CC1=C(N)NC(SCc2ccccc2)=C(C#N)C12CCCCC2", "values": [
      {"measurement": "cell number change", "value": 0.562, "unit": "%"},
      {"measurement": "AC50", "setting": "[2]", "value": "0.58 µM [rising, single point]"}
    ]},
    {"compound": "CCCN(c1ccc(C(=O)OC)cc1)S(=O)(=O)c1ccccc1", "values": [
      {"measurement": "cell number change", "value": 20.9, "unit": "%"},
      {"measurement": "AC50", "setting": "[1]", "value": "13 µM [rising, partial curve, poor fit]"}
    ]},
    {"compound": "CN(C(=O)CCc1nc2ccccc2c(=O)[nH]1)C1CCS(=O)(=O)C1", "note": "(configuration not stated)", "values": [
      {"measurement": "cell number change", "value": -13.6, "unit": "%"},
      {"measurement": "AC50", "setting": "[1]", "value": "0.0731 µM [rising, full curve, poor fit]"}
    ]},
    {"compound": "CC1=C(/C=C/C(=O)O)C(C)(C)CCC1", "values": [
      {"measurement": "cell number change", "value": -5.49, "unit": "%"},
      {"measurement": "AC50", "setting": "[1]", "value": "25.9 µM [falling, partial curve]"}
    ]},
    {"compound": "CCN(CC)Cc1ccc(OC)c(Cl)c1", "values": [
      {"measurement": "cell number change", "value": -11, "unit": "%"},
      {"measurement": "AC50", "setting": "[1]", "value": "0.103 µM [falling, full curve]"}
    ]},
    {"compound": "CCOc1ccccc1N1CCN(S(=O)(=O)c2ccc3c4c(cccc24)C(=O)N3)CC1", "values": [
      {"measurement": "cell number change", "value": -17.4, "unit": "%"},
      {"measurement": "AC50", "setting": "[1]", "value": "4.11 µM [rising, single point]"}
    ]},
    {"compound": "CCn1c(C)c(C)c2cc(C(=O)NC3CCCCCC3)ccc21", "values": [
      {"measurement": "cell number change", "value": -10.7, "unit": "%"},
      {"measurement": "AC50", "setting": "[1]", "value": "29.1 µM [falling, single point]"}
    ]},
    {"compound": "Cc1ccc(S(=O)(=O)Oc2ccccc2N2C(=O)C3CC=CCC3C2=O)cc1", "note": "(configuration not stated)", "values": [
      {"measurement": "cell number change", "value": 13.4, "unit": "%"}
    ]},
    {"compound": "O=S(=O)(c1cccs1)N1CCC2(CC1)OCCN2S(=O)(=O)c1ccccc1", "values": [
      {"measurement": "cell number change", "value": -7.69, "unit": "%"},
      {"measurement": "AC50", "setting": "[1]", "value": "10.3 µM [rising, partial curve]"}
    ]},
    {"compound": "O=C(CCCCCn1c(=O)[nH]c2ccsc2c1=O)NCc1cccs1", "values": [
      {"measurement": "AC50", "setting": "[1]", "value": "5.8 µM [falling, partial curve]"}
    ]},
    {"compound": "O=C(O)c1sc2ncccc2c1OCc1ccccc1", "values": [
      {"measurement": "cell number change", "value": 15, "unit": "%"},
      {"measurement": "AC50", "setting": "[1]", "value": "5.8 µM [falling, single point]"}
    ]},
    {"compound": "CCOc1ccc(N2CC(C(=O)Nc3ccccc3F)CC2=O)cc1", "note": "(configuration not stated)", "values": [
      {"measurement": "cell number change", "value": 36.3, "unit": "%"},
      {"measurement": "AC50", "setting": "[2]", "value": "25.9 µM [rising, single point]"},
      {"measurement": "AC50", "setting": "[1]", "value": "6.51 µM [rising, single point]"}
    ]}
  ]
}
